Results on 13 molecules are retold here after publication PMC12029333.

The experiment has as its target T1, GST-PrkC (Serine/threonine-protein kinase PrkC) (Bacillus subtilis str. 168) (UniProt O34507).
T1 sequence: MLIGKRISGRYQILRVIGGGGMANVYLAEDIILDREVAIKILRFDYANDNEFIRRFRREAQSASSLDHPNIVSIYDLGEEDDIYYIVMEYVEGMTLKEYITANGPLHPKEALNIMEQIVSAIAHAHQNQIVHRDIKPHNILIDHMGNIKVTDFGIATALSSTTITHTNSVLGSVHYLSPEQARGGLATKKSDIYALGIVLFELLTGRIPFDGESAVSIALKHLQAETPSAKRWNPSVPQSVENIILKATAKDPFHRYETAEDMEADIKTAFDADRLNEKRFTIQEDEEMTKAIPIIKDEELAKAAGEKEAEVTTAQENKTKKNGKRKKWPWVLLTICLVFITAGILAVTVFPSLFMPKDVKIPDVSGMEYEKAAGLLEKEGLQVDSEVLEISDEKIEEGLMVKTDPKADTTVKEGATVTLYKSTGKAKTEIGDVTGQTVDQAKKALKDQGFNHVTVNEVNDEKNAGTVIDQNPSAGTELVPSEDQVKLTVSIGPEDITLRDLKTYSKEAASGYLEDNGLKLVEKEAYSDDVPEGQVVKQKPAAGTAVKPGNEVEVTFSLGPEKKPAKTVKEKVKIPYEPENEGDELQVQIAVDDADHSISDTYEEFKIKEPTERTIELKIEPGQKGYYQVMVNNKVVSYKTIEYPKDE
Description: affinity purification with mass spectrometry; GST-PrkC on glutathione resin incubated with B. subtilis spore lysate at 4 °C; resin washed; bound proteins eluted with 20 mM reduced glutathione; eluate digested with trypsin and analysed by LC-MS/MS; hits filtered at 1% FDR, >=2 unique peptides; only the target purified.

No constants are given. Whether binding was seen depends on the method and setting. In cells and extracts the contact can be indirect. These calls come from enrichment with a bait or labelling near it, and not all partners need be listed. Tags and fused reporters may be left off the sequences shown.

B1: ATP-dependent DNA helicase RecQ (protein, UniProt O34748 1-591)
chain: MLHRAQSLLAHYFGYEKFRSGQDEAIRLVTEARQNTACIMPTGGGKSICYQIPALMFEGTTIVISPLISLMKDQVDALEEAGINAAYINSTQSNQEIYERLNGLKEGAYKLFYITPERLTSIEFIRILQGIDVPLVAIDEAHCISQWGHDFRPSYRNIEILFRELHDKPVIMALTATATPEVHDDICKQLHIQKENTVYTGFSRENLTFKVVKGENKDRFIDEYVQNNRHEAGIVYTATRKEADRIYERLKRNQVRAGRYHGGLADDVRKEQQERFLNDELQVMVATSAFGMGIDKSNIRFVLHAQIPKDMESYYQEAGRAGRDGLASECVLLFSPQDIMVQRFLIEQSEHEEKQKQDLKKLRQMVDYCHTEDCLQRFILMYFGEKEPDACGQCGNCTDTRAAHDVTREAQMVLSCIIRMKERFGKTMVAQVLAGSKNKKVLENGFSDLSTYGILKHQSVGEISDFIEFLISDDFIRMSDGTFPTLFVSSKGRNVLKGELSVARKEALKAAAITENDELFERLRMVRKEIAAEQGVPPFVVFSDQTLKEMSGKQPVNDDELLSIKGVGEQKRAKYGRLFLQEIQAYARMTD
Turning to B1, the binding entry is on record as “binds”.

B2: Uncharacterized ATP-dependent helicase YprA (protein, UniProt P50830 1-749)
chain: MKKKSLTELISDLKGNENVVNWHEIEPREAKTRPMPESIDERIKAALSKRGIDELYTHQYSAFQYVQKGESIVTVTPTASGKTLCYNLPVLQSIAQDETNRALYLFPTKALAQDQKSELNEIIDEMGIDIKSFTYDGDTSPAIRQKVRKAGHIVITNPDMLHSAILPHHTKWVSLFENLKYIVIDELHTYRGVFGSHVANVIRRLKRICRFYGSDPVFICTSATIANPKELGEQLTGKPMRLVDDNGAPSGRKHFVFYNPPIVNKPLNIRRSATAEVNELAKEFLKNKVQTIVFARSRVRVEIILSHIQELVKKEIGTKSIRGYRGGYLPKERREIERGLREGDILGVVSTNALELGVDIGQLQVCVMTGYPGSVASAWQQAGRAGRRHGESLIIMVANSTPIDQYIVRHPEYFFNRSPESARINPENLIILVDHLKCAAYELPFRADEEFGAMEVSDILEYLQEEAVLHRNGERYHWASESFPASNISLRSASQENVVIVDQSDIANVRIIGEMDRFSAMTLLHDEAIYLHEGVQYQVEKLDWDHKKAYVRKVDVEYYTDANLAVQLKVLEIDKTKEKSRTSLHYGDVTVNALPTIFKKIKMTTFENIGSGPIHLPEEELHTSAAWLEIKTADEDIGEKTLEQLLLGISNVLQHIVPVYIMCDRNDVHVVSQIKAAHTGLPTIFLYDHYPGGIGLAEEVFKRFSDINEAAKQLITHCPCHDGCPSCIGTEIEGIKAKERILQLLDQMS
On to B2, for which the binding result is “binds”.

B3: SPbeta prophage-derived uncharacterized protein YolB (protein, UniProt O31993 1-118)
chain: MISTSNYDVTKDPKFLAFCSLATEGYGQNNTQQSSIGFNEFCEKLEKNAIVKPENKKSTLDLNKSLEDWKLRFTAGGNLSTMDSQVLDVIKKAYNLGMVNKDNMLLRNEAINAYRNSI
B3: the binding result is reported as “binds”.

B4: Spore coat protein F-like protein YhcQ (protein, UniProt P54601 1-217)
chain: MDQFNQQQQSQMNKGIPGKPHKNHGGHEMFDMHEVLSGTLTVLDQFMMLRQFCKDQELLNILDRQHQFITSQYNITAECFKTGSEPSQKTATYMMKEDNQTVYGMQPSQPKKPVQSMNDIDDSIISRQMLCAIKAQASMLTMASLEMTNPAVRRVLSAQIQEYVEMAFEIFLYQNKHGYYQVPQLDAQDMEQLRNSFAPAQGQMPPTQGGMGQQGLH
With B4, the binding result is given as “binds”.

B5: Uncharacterized protein YlbO (protein, UniProt O34549 1-193)
chain: MTITRQDAWTQDEDLLLAEVVLRHIREGGTQLSAFEEVGRALTRTAAACGFRWNSYVRKQYQSGIELAKKQRKELRKQIGVHSVNMPNSMKQTASASSEGKRDLSIQDVIQFLEQFKETPSAQEFQLEREKLKEQIQSLQKELEDLRSENQTLRNQLEMTEEDYKALIDIMDRARKMVVSKEDGRMKKAAQET
On to B5, for which the binding result was “binds”.

B6: Group 2 truncated hemoglobin YjbI (protein, UniProt O31607 1-132)
chain: MGQSFNAPYEAIGEELLSQLVDTFYERVASHPLLKPIFPSDLTETARKQKQFLTQYLGGPPLYTEEHGHPMLRARHLPFPITNERADAWLSCMKDAMDHVGLEGEIREFLFGRLELTARHMVNQTEAEDRSS
On to B6, for which the binding result is on record as “binds”.

B7: Uncharacterized ABC transporter ATP-binding protein YdbJ (protein, UniProt P96605 1-308)
chain: MAEPILHIEGLDKKIGSKQILKQISMDVMEGEIIGLLGPNGSGKTTLIRIIVGLLKQNSGSVTISGFQHDTEFEKAMEAVGAIVENPEFYPYLTGWENLKHFANMHKKIADERLDEVVERVGLTSAIHDKVKTYSLGMRQRLGIAQAILHRPKLLILDEPTNGLDPAGMKDFRDHIKELAEMEGTAVLFATHLLREVEDLCDRVIIIQKGEIKAEVSLQGTDQTTEKAIIEVQPQEKALNWLTGNQYQAESQDGTIVVEVAKENIPELNRSLVGQDLNVFSITPYTQSLEDEFIKATTAHQEEGEELV
Consider B7, for which the binding entry is given as “binds”.

B8: Uncharacterized N-acetyltransferase YoaA (protein, UniProt O34569 1-177)
chain: MFPILETDRLILRQITDQDAEAIFACFSNDEVTRYYGLENMESIEQAISMIQTFAALYQEKRGIRWGIERRDTKELIGTIGFHALAQKHRRAEIGYEIIPEHWRNGFASEVISKVVSYGFSALGLSRIGAVVFTDNEASNRLLLKMGFQKEGVLRQYMYQNGTPYDTNVYSIVKPRE
Regarding B8, the binding entry is “binds”.

B9: Uncharacterized protein YjdH (protein, UniProt O31649 1-131)
chain: MYHYFYGPALIPYFSHTHNPQRSPDFSERQRRREITLTVDGFVPPSSTEDLGDGFYSYAWTNQQVINPGEYLVCHLEGRDINVINGGFTPRDTAPLYAVASFPRRRNQWVIIIHNPVQTQRAISLYLIAKR
In the case of B9, the binding entry is reported as “binds”.

B10: UPF0358 protein YlaN (protein, UniProt O07638 1-93)
chain: MASEMIVDHRQKAFELLKVDAEKILKLIRVQMDNLTMPQCPLYEEVLDTQMFGLSREIDFAVRLGLVDEKDGKDLLYTLERELSALHDAFTAK
For the molecule B10, the binding result is on record as “binds”.

B11: Uncharacterized protein YfjB (protein, UniProt O31557 1-407)
chain: MSGNIAVDPDKLEQLANDVVTELTDMENKYKDLHVELGQMILQCDPRYSSCFSGVGDAWSSGKALVTKLSDNEIFIRKTGDKFVEQDDILRKLYNAYDKYGTMTSLTALMLTQGKYYGLGLTKFVKQPSGLHTAQHSKLLLDISRAVDSSRYQKAARVLLNPKYLLKKTNRPFSDLVHKKFTKYFPQDTVDFSNSVRSYTKGFLNEAGVRSTLKDVGKTGLRFAKGNAITATLITGATETFGAGVKIAENYAKYQDKPEVLKRENAKAVGNAVNNTIFVAGGATAGAVIGGAIGSFAGPVGTVLLGAAGSYIGGVVGEQIAKYTAGFAEKAALKLKEPIHAVVDTAKKGLESAGKVVKSVNDGIDAANKSIHKGIDSAKKGMEKAKKTADSLIHGATHFLKGKFSFG
As to B11, the binding result is recorded as “binds”.

B12: 3-dehydroquinate dehydratase (protein, UniProt P35146 1-255)
chain: MNVLTIKGVSIGEGMPKIIIPLMGKTEKQILNEAEAVKLLNPDIVEWRVDVFEKANDREAVTKLISKLRKSLEDKLFLFTFRTHKEGGSMEMDESSYLALLESAIQTKDIDLIDIELFSGDANVKALVSLAEENNVYVVMSNHDFEKTPVKDEIISRLRKMQDLGAHIPKMAVMPNDTGDLLTLLDATYTMKTIYADRPIITMSMAATGLISRLSGEVFGSACTFGAGEEASAPGQIPVSELRSVLDILHKNTRG
With B12, the binding entry is listed as “binds”.

B13: Putative ABC transporter substrate-binding lipoprotein YhfQ (protein, UniProt C0SP94 20-323)
chain: CSSSSGNQNSKEHKVAVTHDLGKTNVPEHPKRVVVLELGFIDTLLDLGITPVGVADDNKAKQLINKDVLKKIDGYTSVGTRSQPSMEKIASLKPDLIIADTTRHKKVYDQLKKIAPTIALNNLNADYQDTIDASLTIAKAVGKEKEMEKKLTAHEEKLSETKQKISANSQSVLLIGNTNDTIMARDENFFTSRLLTQVGYRYAISTSGNSDSSNGGDSVNMKMTLEQLLKTDPDVIILMTGKTDDLDADGKRPIEKNVLWKKLKAVKNGHVYHVDRAVWSLRRSVDGANAILDELQKEMPAAKK
With B13, the binding entry is “binds”.
